In publication PMC7042371:
Results are given in words; binding and its absence hold for the method and conditions named. Binding seen in cells or lysates may run through a third protein. Binding can be weak; no strength is given.

Columns and labels:
[1] = molecular target: GFP-FCHO1 fusion protein, wild-type (FCH domain only 1) (human); assay: co-IP; GFP-tagged FCHO1 (wt or mutant) pulled down with GFP-Trap magnetic beads from whole-cell lysates of HEK293T cells overexpressing it; lysis and two washes in RIPA buffer; blots for EPS15 and EPS15R
[2] = molecular target: C’-flag FCHO1 fusion protein (human); assay: co-IP; N’ or C’ Flag-tagged FCHO1 pulled down with anti-Flag M2 Affinity Gel from lysates of stably transduced Jurkat cells; cells starved 1 h and stimulated with α-CD3 (OKT3) cross-linked by goat α-mouse antibody for 2 to 20 min at 37 °C; RIPA buffer; blots for EPS15 and CD3 chains
[3] = molecular target: N’-flag FCHO1 fusion protein (human); assay: as above

Binder	binding [1]	binding [2]	binding [3]
epidermal growth factor receptor pathway substrate 15 (EPS15), in HEK293T lysate (protein, UniProt P42566 1-896) MAAAAQLSLTQLSSGNPVYEKYYRQVDTGNTGRVLASDAAAFLKKSGLPDLILGKIWDLADTDGKGILNKQEFFVALRLVACAQNGLEVSLSSLNLAVPPPRFHDTSSPLLISGTSAAELPWAVKPEDKAKYDAIFDSLSPVNGFLSGDKVKPVLLNSKLPVDILGRVWELSDIDHDGMLDRDEFAVAMFLVYCALEKEPVPMSLPPALVPPSKRKTWVVSPAEKAKYDEIFLKTDKDMDGFVSGLEVREIFLKTGLPSTLLAHIWSLCDTKDCGKLSKDQFALAFHLISQKLIKGIDPPHVLTPEMIPPSDRASLQKNIIGSSPVADFSAIKELDTLNNEIVDLQREKNNVEQDLKEKEDTIKQRTSEVQDLQDEVQRENTNLQKLQAQKQQVQELLDELDEQKAQLEEQLKEVRKKCAEEAQLISSLKAELTSQESQISTYEEELAKAREELSRLQQETAELEESVESGKAQLEPLQQHLQDSQQEISSMQMKLMEMKDLENHNSQLNWCSSPHSILVNGATDYCSLSTSSSETANLNEHVEGQSNLESEPIHQESPARSSPELLPSGVTDENEVTTAVTEKVCSELDNNRHSKEEDPFNVDSSSLTGPVADTNLDFFQSDPFVGSDPFKDDPFGKIDPFGGDPFKGSDPFASDCFFRQSTDPFATSSTDPFSAANNSSITSVETLKHNDPFAPGGTVVAASDSATDPFASVFGNESFGGGFADFSTLSKVNNEDPFRSATSSSVSNVVITKNVFEETSVKSEDEPPALPPKIGTPTRPCPLPPGKRSINKLDSPDPFKLNDPFQPFPGNDSPKEKDPEIFCDPFTSATTTTNKEADPSNFANFSAYPSEEDMIEWAKRESEREEEQRLARLNQQEQEDLELAIALSKSEISEA	binds	–	–
EPS15, in Jurkat lysate (protein, UniProt P42566 1-896) MAAAAQLSLTQLSSGNPVYEKYYRQVDTGNTGRVLASDAAAFLKKSGLPDLILGKIWDLADTDGKGILNKQEFFVALRLVACAQNGLEVSLSSLNLAVPPPRFHDTSSPLLISGTSAAELPWAVKPEDKAKYDAIFDSLSPVNGFLSGDKVKPVLLNSKLPVDILGRVWELSDIDHDGMLDRDEFAVAMFLVYCALEKEPVPMSLPPALVPPSKRKTWVVSPAEKAKYDEIFLKTDKDMDGFVSGLEVREIFLKTGLPSTLLAHIWSLCDTKDCGKLSKDQFALAFHLISQKLIKGIDPPHVLTPEMIPPSDRASLQKNIIGSSPVADFSAIKELDTLNNEIVDLQREKNNVEQDLKEKEDTIKQRTSEVQDLQDEVQRENTNLQKLQAQKQQVQELLDELDEQKAQLEEQLKEVRKKCAEEAQLISSLKAELTSQESQISTYEEELAKAREELSRLQQETAELEESVESGKAQLEPLQQHLQDSQQEISSMQMKLMEMKDLENHNSQLNWCSSPHSILVNGATDYCSLSTSSSETANLNEHVEGQSNLESEPIHQESPARSSPELLPSGVTDENEVTTAVTEKVCSELDNNRHSKEEDPFNVDSSSLTGPVADTNLDFFQSDPFVGSDPFKDDPFGKIDPFGGDPFKGSDPFASDCFFRQSTDPFATSSTDPFSAANNSSITSVETLKHNDPFAPGGTVVAASDSATDPFASVFGNESFGGGFADFSTLSKVNNEDPFRSATSSSVSNVVITKNVFEETSVKSEDEPPALPPKIGTPTRPCPLPPGKRSINKLDSPDPFKLNDPFQPFPGNDSPKEKDPEIFCDPFTSATTTTNKEADPSNFANFSAYPSEEDMIEWAKRESEREEEQRLARLNQQEQEDLELAIALSKSEISEA	–	binds	binds
